In PubChem BioAssay AID493014 (National Center for Advancing Translational Sciences (NCATS), 2011) one finds AC50 data, which are given here for 63 molecules.

A short description of this test: qHTS Assay to Find Inhibitors of Chronic Active B-Cell Receptor Signaling. As to conditions: ABC-DLBCL IkBa-CBG/CBR reporter, luminescence ratio (green luciferase fused to IkBa over red control in TMD8 lymphoma cells), 4 h. In outline: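 Doxycycline induced both beetle luciferases in TMD8 lymphoma cells; IKK-driven degradation limits the IkappaBalpha-fused green signal, while red luminescence normalises for cell number and nonspecific effects. Compounds tested up to 46 uM, 4 hrs.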
(qHTS replaces the single test concentration by a dilution series.)

Setting [1] is: measured here: CBR red luminescence, cell number.
[2] abbreviates: measured here: IkBa-CBG green luminescence.

The list shows a part of the results. Shown are side measurements of this screen, not its main read-out; they come without a call. The list favours compounds with an active or inconclusive main result. Words in brackets tell the shape of the fitted curve; partial curves, single points and poor fits give uncertain potencies. Square brackets hold non-standard residues; d marks the D form. Peptide text beside a SMILES is read from it. * marks the point of attachment. ξ: configuration not given here. ξY = NC(Cc1ccc(O)cc1)C(=O)O; Cbz = O=C(OCc1ccccc1)*; OtBu = CC(C)(C)O*; tBu = CC(C)(C)*

The term AC50 denotes the midpoint of the concentration-response curve, whichever way the signal moves. In the case of `Cn1c2c(c(=O)n(C)c1=O)NC1(N2)C(=O)Nc2ccccc21` (configuration not stated), the AC50 under setting [1] was 2.82 µM [falling, full curve, poor fit].
On to `Cc1cc(/C=C(\C#N)C(=O)O)c(C)n1-c1ccc(Br)cc1`, for which the AC50 under setting [1] is 5.01 µM [rising, full curve, poor fit].
With `O=C(NNC(=O)c1ccc(Br)s1)c1csc(N2CCOCC2)n1`, under setting [1], the AC50 is 25.9 µM [falling, single point].
The same measure, in the same setting: then `CCN1C(=O)C(CC(=O)Nc2ccc(OC)cc2)N(CCc2ccc(F)cc2)C1=S` (configuration not stated), with 14.1 µM [falling, single point]; and `Cc1cc(Cl)ccc1OCCNC(=S)NC(=O)c1cccnc1`, with 14.1 µM [rising, single point].
As to `O=C(CSc1ccc2ccccc2c1)N1CCN(c2ccc(O)cc2)CC1`, under setting [1], the AC50 is 0.708 µM [rising, full curve, poor fit].
For the molecule `Cn1cccc1C(=O)NNC(=O)COc1ccc(C#N)cc1`, the AC50 under setting [1] is 23.1 µM [rising, single point].
For the molecule `Cc1cc(C)cc(NC(=O)NC(C)C2CCCO2)c1` (configuration not stated), under setting [1], the AC50 is 6.31 µM [rising, single point].
Still for that read-out and setting: then `COc1ccc(C(=O)c2ccc(Cl)cc2)cc1`, with 29.1 µM [falling, single point].
Same read-out and setting: next, `Nc1ccc(CSc2ccc(Cl)cc2)cc1`: 7.94 µM [falling, partial curve]; `O=C(Oc1coc(CSc2nnc(NC(=O)C3CC3)s2)cc1=O)c1ccccc1`: 0.517 µM [rising, full curve, poor fit].
For the molecule `CC1=NN(Cc2ccccc2)C(=O)/C1=C/c1ccc(N(C)C)cc1`, the AC50 reads like this: under setting [1], 6.31 µM [rising, single point]; under setting [2], 3.16 µM [falling, single point].
Regarding `O=C(COc1ccc(F)cc1F)Nc1cccnc1`, the AC50 under setting [1] is 6.31 µM [rising, single point].
Same read-out and setting: next, `O=C(/C=C/c1ccc(Cl)cc1)Nn1c(-c2cccs2)nc2ccccc2c1=O`: 0.651 µM [falling, partial curve, poor fit].
Take `CCOC(=O)Cc1csc(NC(=O)CSc2nnc(-c3ccc(C)cc3)o2)n1`: the AC50 under setting [1] was 11.2 µM [rising, partial curve, poor fit].
Turning to `Cc1cc(C)cc(NC(=O)C2(c3ccccc3)CC2(Cl)Cl)c1` (configuration not stated), the AC50 under setting [1] is 6.31 µM [rising, full curve].
With `CCCSc1nnc(-c2c[nH]c3ccccc23)n1CC`, the AC50 under setting [1] was 0.731 µM [rising, full curve, poor fit].
On the same count and under the same terms, next, `CC(C)=CCN1CCN(CCCc2ccccc2)CC1CCO` (configuration not stated): 35.5 µM [rising, single point].
For the molecule `COc1ccccc1/C=C/C(=O)Oc1cccc2cccnc12`, the AC50 under setting [2] was 35.5 µM [falling, single point].
Regarding `CCOc1ccccc1NC(=O)CSc1nncc2ccccc12`, the AC50 under setting [1] was 11.2 µM [falling, partial curve].
In the case of `Cc1ccc(-c2csc(NC(=O)CSc3nc(C)cs3)n2)cc1`, under setting [1], the AC50 is 2.59 µM [falling, full curve, poor fit].
As for `C=CCn1c(CSCc2ccccc2)nnc1SCC(=O)NCc1ccccc1`, the AC50 under setting [1] is 8.91 µM [falling, partial curve, poor fit].
As to `CCCCN1CC(=O)N2[C@H]3c4cc(Br)ccc4OC[C@@H]3[C@H](C(=O)OCC)[C@]2(C)C1=O`, the AC50 under setting [1] was 29.1 µM [falling, single point] and the AC50 under setting [2] is 20.6 µM [rising, partial curve, poor fit].
For the molecule `CC(=O)Oc1ccccc1C(=O)Oc1ccc(/C=N/n2cnnc2)cc1`, under setting [1], the AC50 was 2 µM [falling, full curve].
`Cc1ccc(N2C(N)=C(C#N)C(c3cccs3)C3=C2CC(C)(C)CC3=O)cc1` (configuration not stated): under setting [1], the AC50 was 29.1 µM [falling, single point].
`CCC(C)NC(=O)c1cc2cc3ccc(OC)cc3nc2o1` (configuration not stated): the AC50 under setting [1] was 3.16 µM [rising, partial curve, poor fit].
On to `O=[N+]([O-])c1ccc(CSc2nnc(Cc3ccccc3)n2-c2ccc(F)cc2)cc1`, for which, under setting [1], the AC50 is 20.6 µM [falling, single point].
On to `N#C/C(=C\c1ccc(N2CCOCC2)cc1)c1ccccc1`, for which the AC50 under setting [1] is 2.31 µM [rising, partial curve].
On the same count and under the same terms, then `CN(CC(=O)Nc1ccc(F)cc1)c1ccc(S(=O)(=O)N2CCCCC2)cc1[N+](=O)[O-]`, with 8.2 µM [falling, partial curve, poor fit]; and `CCOC(=O)C(=O)Nc1sc(C(=O)N2CCOCC2)c(C)c1C#N`, with 1.58 µM [rising, partial curve, poor fit].
On the same count and under the same terms, next, `C#CCNC(=O)C1=C[C@H](c2cn(C(C)=O)c3ccccc23)C[C@H](OCc2ccc(CO)cc2)O1`: 3.98 µM [rising, single point]; `Cc1nc2nc(-c3ccccc3)cc(=O)n2[nH]1`: 14.6 µM [falling, partial curve].
Take `COc1ccc(OC)c2sc(NC(=O)C(C)C)nc12`: the AC50 under setting [1] was 1.46 µM [falling, partial curve, poor fit].
On to `Cc1cc(C)cc(C(=O)NCC(=O)OCC(=O)Nc2cccnc2Cl)c1`, for which the AC50 under setting [1] was 35.5 µM [rising, single point].
As for `C[C@H](CO)N1C[C@H](C)[C@@H](CN(C)C(=O)Nc2ccccc2)Oc2ccc(NS(=O)(=O)c3ccc(F)cc3)cc2C1=O`, the AC50 under setting [1] is 32.6 µM [rising, single point].
`O=C(CNC(=O)c1ccco1)OCC(=O)c1ccccc1`: the AC50 under setting [1] is 6.31 µM [rising, single point].
`O=C(CCCc1c[nH]c2ccccc12)NCc1ccccc1C(F)(F)F`: under setting [1], the AC50 is 8.91 µM [falling, partial curve, poor fit].
On the same count and under the same terms, then `COc1ccc(OCCCc2c(C)n[nH]c2C)cc1`, with 29.1 µM [rising, partial curve, poor fit]; and `CC(=O)Nc1nc2cc3c(cc2s1)OCCO3`, with 35.5 µM [falling, single point].
As for `COc1ccc(CCN2C(=O)NC(NC(C)=O)(C(F)(F)F)C2=O)cc1OC` (configuration not stated), under setting [1], the AC50 is 16.4 µM [rising, partial curve, poor fit].
In the case of `CC(C)(C)c1ccc(C(=O)N/N=C/c2cccc(Cl)c2)cc1`, the AC50 under setting [1] was 2.06 µM [rising, partial curve, poor fit].
Consider `Cc1ccc(Cc2nc3ccccc3[nH]2)cc1`, for which the AC50 under setting [1] was 1.58 µM [falling, full curve, poor fit].
Still for that read-out and setting: then `Cc1cccc(C(=O)NCC(c2ccco2)S(=O)(=O)c2cccs2)c1` (configuration not stated), with 17.8 µM [falling, single point]; and `Cc1ccc(NC(=O)CSc2nnc3ccc4ccccc4n23)cc1`, with 15.8 µM [rising, partial curve, poor fit]; and `CC1CCN(C(=O)COC(=O)CCCN2C(=O)c3cccc4cccc(c34)C2=O)CC1`, with 0.0891 µM [rising, full curve, poor fit].
On to `CN(Cc1ccccc1)C(=O)c1ccccc1NC(=O)C1=CSCCO1`, for which, under setting [1], the AC50 is 14.1 µM [rising, partial curve, poor fit].
Consider `COCCn1c(SCc2nc3ccccc3c(=O)[nH]2)nc2ccccc2c1=O`, for which, under setting [1], the AC50 was 2.51 µM [falling, full curve, poor fit].
As to `O=C(NCCN1CCN(c2cccc(Cl)c2)CC1)Nc1ccccc1`, under setting [1], the AC50 is 5.01 µM [rising, single point].
Still for that read-out and setting: then `CCCC(C)n1[nH]c(=O)c2c(C)cc(C)nc21` (configuration not stated), with 16.4 µM [rising, partial curve, poor fit]; and `Cc1nc2c(-c3ccccc3)c(C)nn2c(C)c1CCC(=O)O`, with 16.4 µM [falling, partial curve, poor fit].
Consider `CCCCNC1C(CC)C(CCC)C(C#N)(C#N)C1(C#N)C#N` (configuration not stated), for which, under setting [1], the AC50 was 14.6 µM [falling, partial curve].
For `CC(C)(C)OC(=O)C(Cc1ccc(OC(C)(C)C)cc1)NC(=O)CNC(=O)CNC(=O)OCc1ccccc1` (stereo not drawn) (Cbz-Gly-Gly-[ξY](tBu)-OtBu), the AC50 under setting [1] is 18.4 µM [rising, partial curve].
Still for that read-out and setting: then `CCOc1ccc(/C=C/C(=O)c2ccccc2)cc1OC`, with 14.6 µM [falling, single point].
On to `CC(=O)Nc1ccc2nc(-c3ccc(Br)o3)[nH]c2c1`, for which the AC50 is 20.6 µM [falling, single point] under setting [1] and 3.26 µM [rising, full curve, poor fit] under setting [2].
As for `CCN(CC)CCn1c(NC(=O)c2ccc(C(F)(F)F)cc2)nc2ccccc21`, under setting [1], the AC50 is 35.5 µM [falling, single point].
Take `C=CCN(C(=O)c1cccc(N2C(=O)C3CC=CC(C)C3C2=O)c1)c1ccccc1` (configuration not stated): under setting [1], the AC50 is 8.91 µM [falling, partial curve].
As to `S=c1[nH]cnc2sc(Nc3ccccc3)nc12`, under setting [1], the AC50 was 17.8 µM [rising, partial curve, poor fit].
As for `O=C(O)C1(S(=O)(=O)c2ccc(Cl)cc2)CCC1`, the AC50 under setting [1] was 5.62 µM [rising, single point].
With `Cc1nc2ccc(NC(=O)N3CCSCC3)cc2nc1C`, the AC50 under setting [1] is 9.2 µM [falling, partial curve, poor fit].
In the case of `COc1ccc(-c2ocnc2C(=O)N2CCN(C(=O)C(c3ccccc3)c3ccccc3)CC2)cc1`, under setting [1], the AC50 was 35.5 µM [falling, single point].
For the molecule `O=C1N/C(=C/c2ccsc2)C(=O)N1c1ccccc1`, under setting [1], the AC50 was 6.31 µM [falling, full curve].
As for `CCC(CNc1cc(OC)cc2cccnc12)NC1CCCCC1` (configuration not stated), the AC50 under setting [1] was 7.94 µM [falling, partial curve].
Take `CC1(C)Cc2c(sc(NC(=O)c3ccc(C(=O)c4ccccc4)cc3)c2C(N)=O)C(C)(C)N1`: the AC50 reads like this: under setting [1], 8.91 µM [falling, partial curve]; under setting [2], 20 µM [rising, single point].
